Paper PMC11989534
No constants are given. Whether binding was seen depends on the method and setting. Binding seen in cells or lysates may run through a third protein. Here binding means that the protein was enriched with, or labelled near, the bait; the list need not be complete.

B1: CPK-related kinase 1 (CRK1) (enzyme, UniProt O80673 1-576)
chain: MGICHGKPVEQQSKSLPVSGETNEAPTNSQPPAKSSGFPFYSPSPVPSLFKSSPSVSSSVSSTPLRIFKRPFPPPSPAKHIRAFLARRYGSVKPNEVSIPEGKECEIGLDKSFGFSKQFASHYEIDGEVGRGHFGYTCSAKGKKGSLKGQEVAVKVIPKSKMTTAIAIEDVSREVKMLRALTGHKNLVQFYDAFEDDENVYIVMELCKGGELLDKILQRGGKYSEDDAKKVMVQILSVVAYCHLQGVVHRDLKPENFLFSTKDETSPLKAIDFGLSDYVKPDERLNDIVGSAYYVAPEVLHRTYGTEADMWSIGVIAYILLCGSRPFWARTESGIFRAVLKAEPNFEEAPWPSLSPEAVDFVKRLLNKDYRKRLTAAQALCHPWLVGSHELKIPSDMIIYKLVKVYIMSTSLRKSALAALAKTLTVPQLAYLREQFTLLGPSKNGYISMQNYKTAILKSSTDAMKDSRVFDFVHMISCLQYKKLDFEEFCASALSVYQLEAMETWEQHARRAYELFEKDGNRPIMIEELASELGLGPSVPVHVVLQDWIRHSDGKLSFLGFVRLLHGVSSRTLQKA
B2: somatic embryogenesis receptor kinase 4 (SERK4) (receptor, UniProt Q9SKG5 34-620)
chain: DALTQLKNSLSSGDPANNVLQSWDATLVTPCTWFHVTCNPENKVTRVDLGNAKLSGKLVPELGQLLNLQYLELYSNNITGEIPEELGDLVELVSLDLYANSISGPIPSSLGKLGKLRFLRLNNNSLSGEIPMTLTSVQLQVLDISNNRLSGDIPVNGSFSLFTPISFANNSLTDLPEPPPTSTSPTPPPPSGGQMTAAIAGGVAAGAALLFAVPAIAFAWWLRRKPQDHFFDVPAEEDPEVHLGQLKRFTLRELLVATDNFSNKNVLGRGGFGKVYKGRLADGNLVAVKRLKEERTKGGELQFQTEVEMISMAVHRNLLRLRGFCMTPTERLLVYPYMANGSVASCLRERPEGNPALDWPKRKHIALGSARGLAYLHDHCDQKIIHRDVKAANILLDEEFEAVVGDFGLAKLMNYNDSHVTTAVRGTIGHIAPEYLSTGKSSEKTDVFGYGVMLLELITGQKAFDLARLANDDDIMLLDWVKEVLKEKKLESLVDAELEGKYVETEVEQLIQMALLCTQSSAMERPKMSEVVRMLEGDGLAERWEEWQKEEMPIHDFNYQAYPHAGTDWLIPYSNSLIENDYPSGPR
B3: sugar transport protein 1 (STP1) (protein, UniProt P23586 1-522)
chain: MPAGGFVVGDGQKAYPGKLTPFVLFTCVVAAMGGLIFGYDIGISGGVTSMPSFLKRFFPSVYRKQQEDASTNQYCQYDSPTLTMFTSSLYLAALISSLVASTVTRKFGRRLSMLFGGILFCAGALINGFAKHVWMLIVGRILLGFGIGFANQAVPLYLSEMAPYKYRGALNIGFQLSITIGILVAEVLNYFFAKIKGGWGWRLSLGGAVVPALIITIGSLVLPDTPNSMIERGQHEEAKTKLRRIRGVDDVSQEFDDLVAASKESQSIEHPWRNLLRRKYRPHLTMAVMIPFFQQLTGINVIMFYAPVLFNTIGFTTDASLMSAVVTGSVNVAATLVSIYGVDRWGRRFLFLEGGTQMLICQAVVAACIGAKFGVDGTPGELPKWYAIVVVTFICIYVAGFAWSWGPLGWLVPSEIFPLEIRSAAQSITVSVNMIFTFIIAQIFLTMLCHLKFGLFLVFAFFVVVMSIFVYIFLPETKGIPIEEMGQVWRSHWYWSRFVEDGEYGNALEMGKNSNQAGTKHV

target: CPK-related kinase 5 fused with a YFP tag (CRK5-YFP) (Arabidopsis thaliana); assay: affinity purification with mass spectrometry; IP-MS: lysate of 10-d-old 35S::CRK5-YFP transgenic seedlings (10 mM HEPES pH 7.5, 100 mM NaCl, 1 mM EDTA, 10% glycerol, 1% TritonX-100) incubated with anti-GFP beads 3 h at 4 °C, washed five times; Orbitrap Fusion Lumos; 35S::YFP in Col-0 as control

| Binder | binding |
| --- | --- |
| B1 | binds |
| B2 | binds |
| B3 | binds |
